Paper PMC11721672 (Molecules, 2024)
Some peptides are written in HELM: one residue between dots, names in brackets for other building blocks, links after the first $. Square brackets hold non-standard residues; d marks the D form. Ends that are not written are not given here. Bip = N[C@@H](Cc1ccc(-c2ccccc2)cc1)C(=O)O; αMePhe(2-F) = C[C@](N)(Cc1ccccc1F)C(=O)O; Aib = CC(C)(N)C(=O)O

Assay: general procedure: Fmoc solid-phase peptide synthesis; Amphispheres 40 RAM, 75–150 µM resin (Agilent Technologies); HCTU/6-Cl-HOBt/DIEA; HATU/HOAt/DIEA; PyOxim/DIEA then HCTU/HOAt/DIEA
Conditions: whole synthesis, 214 nm

Substance	final HPLC purity [%]
PEPTIDE1{H.[XAib].E.A.T.[XPhe2F].T.S.D.[XBip].[XBip].[am]}$$$$V2.0	93
PEPTIDE1{H.[XAib].A.G.T.[XPhe2F].T.S.D.[XBip].[XBip].[am]}$$$$V2.0	84
PEPTIDE1{H.A.E.G.T.[XPhe2F].T.S.D.[XBip].[XBip].[am]}$$$$V2.0	90
PEPTIDE1{H.[XAib].E.G.T.[XAib].T.S.D.[XBip].[XBip].[am]}$$$$V2.0	95.0
PEPTIDE1{H.[XAib].E.G.T.[XPhe2NO2].T.S.D.[XBip].[XBip].[am]}$$$$V2.0	91.0
PEPTIDE1{H.[XAib].E.G.A.[XPhe2F].T.S.D.[XBip].[XBip].[am]}$$$$V2.0	94
PEPTIDE1{H.[XAib].E.G.T.[XPhe2CF3].T.S.D.[XBip].[XBip].[am]}$$$$V2.0	98.0
Aib-Aib-Glu-Gly-Thr-a-Me-Phe(2-F)-Thr-Ser-Asp-Bip-Bip	96.0
PEPTIDE1{H.[XAib].E.G.T.W.T.S.D.[XBip].[XBip].[am]}$$$$V2.0	96.0
PEPTIDE1{H.[XAib].E.G.T.[XPhe2Br].T.S.D.[XBip].[XBip].[am]}$$$$V2.0	96.0
PEPTIDE1{H.[XAib].E.G.T.[XPhe2F].A.S.D.[XBip].[XBip].[am]}$$$$V2.0	89
PEPTIDE1{H.[XAib].E.G.T.[XPhe2F].T.S.D.A.[XBip].[am]}$$$$V2.0	96
PEPTIDE1{H.[XAib].E.G.T.[XPhe2CN].T.S.D.[XBip].[XBip].[am]}$$$$V2.0	80.0
PEPTIDE1{H.[XAib].E.G.T.A.T.S.D.[XBip].[XBip].[am]}$$$$V2.0	93
PEPTIDE1{H.[XAib].E.G.T.[XDPhe].T.S.D.[XBip].[XBip].[am]}$$$$V2.0	89.0
PEPTIDE1{H.[XAib].E.G.T.[XPhe2F].T.S.A.[XBip].[XBip].[am]}$$$$V2.0	83

Substance	final HPLC purity [%]
PEPTIDE1{H.[XAib].E.G.T.F.T.S.D.[XBip].[XBip].[am]}$$$$V2.0	90.0
PEPTIDE1{H.[XAib].E.G.T.[XPhe2F].T.S.D.[XBip].[XBip].[am]}$$$$V2.0	90.0
PEPTIDE1{H.[XAib].E.G.T.[XPhe2Cl].T.S.D.[XBip].[XBip].[am]}$$$$V2.0	88.0
PEPTIDE1{H.[XAib].E.G.T.[XPhe3CF3].T.S.D.[XBip].[XBip].[am]}$$$$V2.0	89.0
PEPTIDE1{H.[XAib].E.G.T.Y.T.S.D.[XBip].[XBip].[am]}$$$$V2.0	93.0
PEPTIDE1{H.[XAib].E.G.T.[XBip].T.S.D.[XBip].[XBip].[am]}$$$$V2.0	88.0
PEPTIDE1{H.[XAib].E.G.T.[XPhe2CH3].T.S.D.[XBip].[XBip].[am]}$$$$V2.0	99.0
PEPTIDE1{A.[XAib].E.G.T.[XPhe2F].T.S.D.[XBip].[XBip].[am]}$$$$V2.0	93
PEPTIDE1{H.[XAib].E.G.T.[XPhe2F].T.S.D.[XBip].A.[am]}$$$$V2.0	92
PEPTIDE1{H.[XAib].E.G.T.[XPhe345F].T.S.D.[XBip].[XBip].[am]}$$$$V2.0	93.0
H[Aib][Aib]GT[αMePhe(2-F)]TSD[Bip][Bip]	93.0
PEPTIDE1{H.[XAib].E.G.T.[XPhe23456F].T.S.D.[XBip].[XBip].[am]}$$$$V2.0	92.0
His-Aib-Glu-Gly-Thr-a-Me-Phe(2-F)-Thr-Ser-Asp-Bip-Bip	92.5
PEPTIDE1{H.[XAib].E.G.T.[XPhe2F].T.A.D.[XBip].[XBip].[am]}$$$$V2.0	87
PEPTIDE1{H.[XAib].E.G.T.[XhPhe].T.S.D.[XBip].[XBip].[am]}$$$$V2.0	99.0
